Reference: paper PMC8827149

Assays:
[1] = target: BBX24IR, protein encoded by the intron-retained splicing variant of BBX24 (Arabidopsis thaliana); experiment: two-hybrid; S. cerevisiae AH109; Gal4 AD fusion in pGAD-T7 (FL cDNA; for the self test AD-BBX22IR) with Gal4 BD fusion in pGBK-T7 (IR isoform); growth on DO-LWHA (-Leu -Trp -His -Adenine) at 28 °C for 2 days, DO-LW as control
[2] = target: BBX22IR, protein encoded by the intron-retained splicing variant of BBX22 (Arabidopsis thaliana); experiment: as above

| binding [1] | binding [2] | Binder |
| --- | --- | --- |
| binds | – | B-BOX DOMAIN PROTEIN 24 (BBX24), annotated full-length protein (protein, UniProt Q96288 1-248) MKIQCDVCEKAPATVICCADEAALCPQCDIEIHAANKLASKHQRLHLNSLSTKFPRCDICQEKAAFIFCVEDRALLCRDCDESIHVANSRSANHQRFLATGIKVALTSTICSKEIEKNQPEPSNNQQKANQIPAKSTSQQQQQPSSATPLPWAVDDFFHFSDIESTDKKGQLDLGAGELDWFSDMGFFGDQINDKALPAAEVPELSVSHLGHVHSYKPMKSNVSHKKPRFETRYDDDDEEHFIVPDLG |
| – | binds | B-BOX DOMAIN PROTEIN 22 (BBX22), annotated full-length protein (protein, UniProt Q9SYM2 1-299) MKIQCNVCEAAEATVLCCADEAALCWACDEKIHAANKLAGKHQRVPLSASASSIPKCDICQEASGFFFCLQDRALLCRKCDVAIHTVNPHVSAHQRFLLTGIKVGLESIDTGPSTKSSPTNDDKTMETKPFVQSIPEPQKMAFDHHHHQQQQEQQEGVIPGTKVNDQTSTKLPLVSSGSTTGSIPQWQIEEIFGLTDFDQSYEYMENNGSSKADTSRRGDSDSSSMMRSAEEDGEDNNNCLGGETSWAVPQIQSPPTASGLNWPKHFHHHSVFVPDITSSTPYTGSSPNQRVGKRRRRF |

These are yes or no findings as the source states them, for the method shown. A result given as binding can be weak or reduced; the word gives no strength.
